This list was built around the results that the source calls inconclusive (neither active nor inactive); the mix of calls is not that of the screen. A potency beside an inconclusive call is a rough fit, not a confirmed value. The source made the active and inactive calls. The calls were made as follows: active = hit-call score of the fitted dose curve at least 0.9, where 1 is the maximum; inconclusive = response in the unintended direction; inactive = score below 0.9.
Target: Luciferin 4-monooxygenase (Photinus pyralis) (UniProt P08659)
Experiment: CCTE_Simmons_QuantiLum_inhib_2: CCTE's Firefly Luciferase Inhibition Assay, Simmons Lab (AID 2283767)
Method: CCTE_Simmons_QuantiLum_inhib_2 is a biochemical, single-readout assay that uses purified luciferase enzyme in a cell-free assay.Measurements were taken 0.5 hour after chemical dosing in a 384-well plate.CCTE_Simmons_QuantiLum_inhib_2 is the assay component measured from the CCTE_Simmons_QuantiLum_inhib_2 assay. It is designed to make measurements of enzyme activity, a form of enzyme reporter, as detected with bioluminescence signals by Luciferase-coupled Quantilum levels technology. This is a secondary assay to CCTE_Simmons_AUR_TPO to evaluate nonspecific enzyme inhibition.Data from the assay component CCTE_Simmons_QuantiLum_inhib_2 was analyzed at the endpoint, CCTE_Simmons_QuantiLum_inhib_2, in the positive analysis fitting direction relative to DMSO as the negative control and baseline of activity. Using a type of enzyme reporter, measures of enzyme activity for loss-of-signal activity can be used to understand inhibition of firefly luciferase. This is an assay endpoint to indicate nonspecific protein inhibition for comparison to aeid 1508 for thyroperoxidase inhibition. To generalize the intended target to other relatable targets, this assay endpoint is annotated to the oxidoreductase intended target family, where the subfamily is monooxygenase.
Quanti-Lum recombinant luciferase (Promega; Madison, Wisconsin) was diluted to 76.9 ng/ml with 200mM potassium phosphate buffer supplemented with 1 mg/ml bovine serum albumin and 65ul (5ng recombinant luciferase) per well was dispensed into opaque, white 384-well plates (Greiner, BioExpress) using an automated liquid handler (BioTek MicroFlo) with a plastic 5 ul tubing cassette. Test compounds were administered using the HDRT as described earlier to achieve a 0.5% final DMSO concentration. Microplates were incubated at 37C in the dark for 30min to mimic the AUR-TPO assay conditions. Luciferase detection reagent (25 ul per well; 9.2 mM dithiothreitol, 75uM Coenzyme A, 147uM dATP, 150uM D-luciferin, 8.9 mM Tricine, 297uM (MgCO3)4.Mg(OH)2.5H20, 742uM MgSO4, 27.8uM EDTA, pH 7.8, final assay concentrations) was then added using a BMG Clariostar plate reader equipped with syringe injectors (BMG LabTech; GmbH). Plates were read using a kinetic luminescence protocol (top read) whereby each well was individually injected with luciferase detection reagent immediately prior to measurement. Three biological replicates of technical singles were run for every chemical concentration tested. A titrated range of LUCINH2 served as a positive control on each plate of the luciferase inhibition screening assay. Test chemicals were administered as a titrated series of 8 concentrations from 5 nM up to 87.5 uM [final] for 30 minutes prior to single endpoint detection. Dimethylsulfoxide [DMSO] was used as the vehicle control. Luciferase Inhibitor I [2-(5-(2-Methoxyphenyl)-1,2,4-oxadiazol-3-yl)pyridine] was used as the positive control and was administered as a titrated series of 8 concentrations from 1 nM up to 100 uM [final].

Sequences of proteins named here, by UniProt entry; tags and fusion partners are left off.
UniProt P08659, whole entry, looked up: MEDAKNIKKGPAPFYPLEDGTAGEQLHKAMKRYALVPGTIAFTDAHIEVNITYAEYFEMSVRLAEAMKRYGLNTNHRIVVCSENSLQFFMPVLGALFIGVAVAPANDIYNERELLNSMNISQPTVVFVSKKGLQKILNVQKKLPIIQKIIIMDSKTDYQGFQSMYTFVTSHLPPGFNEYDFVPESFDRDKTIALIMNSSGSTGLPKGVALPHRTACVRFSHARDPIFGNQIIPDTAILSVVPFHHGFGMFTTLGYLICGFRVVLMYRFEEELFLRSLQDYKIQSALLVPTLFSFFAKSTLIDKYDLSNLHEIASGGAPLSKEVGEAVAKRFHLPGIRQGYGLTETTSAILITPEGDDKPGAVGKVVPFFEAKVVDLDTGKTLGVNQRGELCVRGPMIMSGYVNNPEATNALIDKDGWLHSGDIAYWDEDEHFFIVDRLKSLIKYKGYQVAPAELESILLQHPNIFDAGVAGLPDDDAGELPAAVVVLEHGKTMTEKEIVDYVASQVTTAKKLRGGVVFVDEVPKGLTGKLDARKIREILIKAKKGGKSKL

Compound	AC50	outcome
O=C1CCC(C2CCCCC2)CC1	active: 3.38 µM	–
CC1=NN(c2ccc(S(=O)(=O)O)cc2)C(=O)C1N=Nc1ccccc1 (configuration not stated)	–	inactive
Nc1ccc(C(=O)O)cc1	inconclusive: 0.0105 µM	–
C[C@]12CC[C@H]3C(=CCc4cc(O)ccc43)[C@@H]1CCC2=O	active: 47 µM	–
Nc1nc(=S)c2[nH]cnc2[nH]1	active: 11.2 µM	–
C#C[C@]1(O)CC[C@H]2[C@@H]3CCC4=CC(=O)CC[C@@H]4[C@H]3CC[C@@]21C	inconclusive: 0.0909 µM	–
CCCCCCCCCCCCS	–	inactive
CC1(C)C(=O)NC(=O)N1CO	inconclusive: 10.6 µM	–
Oc1ccc(O)cc1	–	inactive
NC(=NCCCCCCN=C(N)/N=C(\N)Nc1ccc(Cl)cc1)/N=C(\N)Nc1ccc(Cl)cc1	inconclusive: 68.1 µM	–
C=CC(=C)CCC=C(C)C	inconclusive: 0.0105 µM	–
Cc1cc(C(=C2C=CC(=Nc3ccc(S(=O)(=O)O)cc3)C=C2)c2ccc(Nc3ccc(S(=O)(=O)O)cc3)cc2)cc(S(=O)(=O)O)c1N	active: 42.8 µM	–

From PubChem BioAssay (EPA / NIEHS)
